Measured values published in publication PMC8546589.

B1: URE3-BP (upstream regulatory element 3-binding protein) (protein, UniProt C4MBE2 1-227)
chain: MQFGYPPMQPPVANFCLWNLQPIQGSWMGAACIYQMPPSVRNTWWFPLLNTIPLDQYTRIYQWFMGVDRDRSGTLEINELMMGQFPGGIRLSPQTALRMMRIFDTDFNGHISFYEFMAMYKFMELAYNLFVMNDRNRSGTLEPHEILPALQQLGFYINQRTSLLLHRLFARGMAFCDLNCWIAICAFAAQTRSAYQMIFMNPYYGPMKPFNPMEFGKFLDVVTSLLE
B2: Tudor-like protein (endogenous) (protein, UniProt C4M0A8 1-861)
chain: MPAQNTQKKDLSKKVEKKPESEPKKEKKTFTAFVAKVKSNNSLTLSSKKDDKRSTVVLAYVDLPRYDAKEKKEEAFAYETNEILRKKLVTGKEVKFEVVSEHQGIPKAVVPFVRKENIVCTLIESGYASLKIKGKGKEFSQYFDAEQKAKDSHRGIFSEDMIKIAKKRPENIFFNEKEISELKGKTIQGHIKRVEAPSHYIIEDTNRRRFKVVLYGVNQMLRYNTEKDVFDFDDDAKDAMKYINRSFNQRDVTVKVIETSQRVAYAQLSVEKKDVAEELLRSGFVVCSKLENATEEIKQKYQAAEKEAKKEKKARWTEFDQAAEDAIIAKRQQRLKELEDRRKNAKIISGAEIIYIGNHIKAKKGNEEYNIHLASVRPVFKKNDKEFNDLVQFRIKECLRKLIVGKKFEAKECYKRSFTKEDKTIEEVFYDVYASGKNVAVTLIKEGLVVLEKTRDEFYQSFDYKLLSETPKGEYKEKVVTQYPAEKRESIKDVFLNNSFNCIVERVINVCKYVIYIPEKDCRMTVVLSHCRIPRDDENEELKKFNEESKAAVRALFGLNEVTVDFREFFKGNFCVDILSKKFDLCDLVLSKAYAQFSGRDIPENIAEMKENQEGIYKFAGAKKEGESKPVRPVKVVKEVHREIKFGEGKNVYITGFDGSMIYYYEKVADAKFIEELSNKLKKCNKGSVEQKDGQKCVVEIKGVQYRAIITKAVPTANVVKCIDTGAVIVCGKNKLKPLKEEYENIEVTVKSIALAGVKTLVRGKDVDFDAMINAVSSFFNKEATMFVATINDKEVAKVVVGDVCINNMLIEEGLSILDRFFNDNSDWGRAMTSAQSAAKDKHLNVWRYGEIDDDEEKDKH
B3: NAP12 (endogenous) (protein, UniProt C4M8H9 1-264)
chain: MSIHSIDKINKVILSKNIDEYIDIVGGEVNENLEELKKIDKEIGEKEIEYQLECLKLEQESEKDIQEILKIRRAIINGTKHRTNDGIQECGISNFWIEVFNEVGLMGNLEVTKEEIDILQSLIDIEKHIKEIKRNEGKEEIYINIHYTFLFKENQFLSNSIFEFELEHCINRYGIIIEETRNYIPLSHFKWKKQIKEKRMFDLLENGGKNLHCYLHEALNNIDFGAIDMFFGINTQNLFLDSFSVSDDENDCSVDDGCVDYATH
B4: NAP07 (endogenous) (protein, UniProt C4M608 1-241)
chain: MSYQSSQLPEDESINRKLLQETNRSLKIAQAELTVKKVYKTMEYEKMMKILNERRKDVVVGLSDQKSEESQQSKPIKNDDVTSPKPQINNKGVPFFWIRALNAVSLFLSYNTVEEDLVALSYLNDIKITTLTPSFDMKSLTIKMGKELSFFFDKNPYFTNDHFTIRMIYRANENGERIGSTGRIKVITNGIDWKVNLLEINSSSFFNVFIQELVNEEDYEILDSVFDNFNTKAIQYFYQFN
B5: DNA repair protein (EHI_114930) (protein, UniProt C4M7S7 1-764)
chain: MKRSCAPSQKKLLSQKPLHQPKQQEENQKKNPKVLLKVITQEKKKIDIIKVFKIMWAKNSPKKQKTFNDGFIVVNSNNIGLIHDEEDKVIGKVNNIMKEISPETIGGDSIILAGKVIEIEEEVPVEQYLSGKLFLHETAITITQPKFELKKTALGNGPIKKKKVSLYNKENPFAYCIDDKKEPAILIDPYIGKFLRPHQIEGVKFMYHCIMRGGECGCILADEMGLGKTLQTITLIWTVYKQCNIKKIVIVCPQSLIGNWEKEFKKWLGVERISVQTGSSDSSMKEKVNDFIRDYIPVLIISYEQVRSHVETLKKTKIGLIVCDEGHRIKNLMSKTNSSLKALGGSRHIILSGTPVQNGLEDFYSLIEFCSPGCLGTLSSFKRVFAIPIQKAQDGNASIEEIQLGTERAKELTNKLNDYVLRRTSQVNEKYLPDKTEIVLFIKPSYLQIKLYKIMLKELEKKKLDQCSALKYIQLFTKLCNHPSLISKYLTEEKISLNENDEKCIKGISLNEESSNKFNITIQFIKEILIKSKEKVVLVSNYTKTLDLFEIYFKQEEEYKQKKIFNYLRLDGKTSQKQRDIIVEKINDKSSNYNILLLSSKAGGVGLNLIGCSRLILFDPDWNPAKDKQAMARIWRDGQQKKAMIYRMLCTGTIEEKIYQRQLQKNQISESIIEEHLEMGKSLSVEQLMKIFELNTNTICDTHDLLQCDCCNGGYKTEEDTLHLIPKMKEEIKSIDPLISTIEGINKMVSMLFVNEFHNKQKMK
B6: enhancer binding protein-1 (endogenous) (protein, UniProt C4M5C4 1-306)
chain: MTTLYVSHLDYSLKVEDVQNAFKTYNPKEVKIISTPIGYSRGFAFIEFATPQEAEKALEMDRHTIGKMEIKVQKALPKEETTTERKMNRRGFKGKRNTRKRHLVKRTNEVTDNMLFIKNLPFAITEEKLKEMFSKFGVVEITLIKTHRKKGNVTKNNGIAFITVKTAEEQKKAIAEMNNFEVEGRKITVAAAYKKVENKQTTKKTNEPKSLSETNVFVKNLPFTLTDEGFKKLFEKYDVVEATIVKRHNKKLNVDRSKGYGFVTFKTAEQQKKAIAEMDNFEVEGRKITVTSAYQRAEKKEETTSN

These molecules were tested against T1, Myc-EhAgo2-2^ΔNLS-DR (E. histolytica) (UniProt C4LVV2) (assay: affinity purification with mass spectrometry; anti-c-Myc agarose IP from whole-cell lysate of E. histolytica lines overexpressing the Myc-tagged bait (EhAgo2-2 WT, its two mutants, EhRdRP1, EhRdRP2), 2 h at 4°C, six low-stringency washes; LC-MS/MS in triplicate; nonribosomal hits in at least 2 of 3 data sets, exclusive or ≥3-fold enriched against the Luc control).
T1 sequence: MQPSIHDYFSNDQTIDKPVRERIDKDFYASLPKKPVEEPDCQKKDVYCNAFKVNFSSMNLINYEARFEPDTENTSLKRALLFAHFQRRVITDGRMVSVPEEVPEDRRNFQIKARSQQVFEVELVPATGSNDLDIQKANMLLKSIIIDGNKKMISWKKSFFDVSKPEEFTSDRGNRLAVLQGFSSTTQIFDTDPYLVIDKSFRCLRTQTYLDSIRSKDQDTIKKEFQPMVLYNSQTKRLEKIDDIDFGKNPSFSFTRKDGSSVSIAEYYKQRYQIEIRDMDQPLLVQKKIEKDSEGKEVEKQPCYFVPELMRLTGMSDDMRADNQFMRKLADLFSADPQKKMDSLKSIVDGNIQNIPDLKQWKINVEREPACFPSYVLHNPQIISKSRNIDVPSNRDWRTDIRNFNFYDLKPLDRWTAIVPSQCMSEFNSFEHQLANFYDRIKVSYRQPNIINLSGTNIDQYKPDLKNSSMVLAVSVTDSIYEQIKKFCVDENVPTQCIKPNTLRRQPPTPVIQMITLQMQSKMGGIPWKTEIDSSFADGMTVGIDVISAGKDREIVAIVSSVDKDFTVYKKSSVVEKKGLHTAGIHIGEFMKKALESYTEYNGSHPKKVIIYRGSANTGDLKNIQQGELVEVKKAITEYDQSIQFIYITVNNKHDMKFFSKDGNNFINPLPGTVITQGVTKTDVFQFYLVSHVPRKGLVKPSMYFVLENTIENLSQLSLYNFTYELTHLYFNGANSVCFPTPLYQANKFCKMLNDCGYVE
In the case of B1, the binding is reported as “no binding”.
For B2, the binding was “no binding”.
With B3 the binding was “binds”.
In the case of B4, the binding is reported as “binds”.
In the case of B5, the binding is reported as “no binding”.
In the case of B6, the binding is reported as “no binding”.

Target: T1, Myc-EhAgo2-2^ΔNLS-DR (E. histolytica)
Test: as above
Remark: another data set of the same source
elongation factor 1-alpha 1 was tested, and the binding was “no binding”.
In the case of Hsp70, the binding is reported as “no binding”.

These are yes or no findings as the source states them, for the method shown. Binding seen in cells or lysates may run through a third protein. These calls come from enrichment with a bait or labelling near it, and not all partners need be listed. No binding means not detected with the bait. Where a sequence is shown, tags or fusion partners need not be part of it.
